Results are given in words; binding and its absence hold for the method and conditions named. Binding seen in cells or lysates may run through a third protein. Some binding calls cover weakened binding; strength is not graded here.
Biological target: glutamate dehydrogenase (GDH) (bovine (endogenous in MAC-T)) (UniProt P00366)
Assay: co-IP

Protein sequences, listed by entry. Tags and fused reporters are not part of them. Residues count along the entry.
UniProt P00366, residues 58-558: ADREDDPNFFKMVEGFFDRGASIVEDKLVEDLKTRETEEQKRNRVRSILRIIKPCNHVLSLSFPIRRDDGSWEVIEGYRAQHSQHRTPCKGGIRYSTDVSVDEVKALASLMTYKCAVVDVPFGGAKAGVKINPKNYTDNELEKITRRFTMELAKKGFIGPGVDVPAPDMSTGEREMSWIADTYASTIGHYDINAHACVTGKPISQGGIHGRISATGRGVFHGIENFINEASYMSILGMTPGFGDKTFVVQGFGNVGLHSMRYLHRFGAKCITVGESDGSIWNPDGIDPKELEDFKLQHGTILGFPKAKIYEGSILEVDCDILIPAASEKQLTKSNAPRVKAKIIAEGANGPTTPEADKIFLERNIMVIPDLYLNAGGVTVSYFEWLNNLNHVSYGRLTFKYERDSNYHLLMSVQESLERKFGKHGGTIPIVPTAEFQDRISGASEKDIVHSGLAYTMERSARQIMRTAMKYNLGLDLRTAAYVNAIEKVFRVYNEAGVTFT
UniProt Q3ZBQ0, residues 37-310: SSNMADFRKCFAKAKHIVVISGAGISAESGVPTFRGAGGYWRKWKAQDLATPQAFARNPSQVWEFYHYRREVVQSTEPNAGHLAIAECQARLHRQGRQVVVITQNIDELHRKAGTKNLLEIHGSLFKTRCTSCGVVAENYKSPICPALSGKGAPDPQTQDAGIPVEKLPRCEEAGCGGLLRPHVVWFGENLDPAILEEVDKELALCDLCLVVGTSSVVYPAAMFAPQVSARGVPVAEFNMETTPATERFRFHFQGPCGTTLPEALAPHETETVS

binding: binds
Substance: Sirtuin 5 (SIRT5) (from UniProt Q3ZBQ0 37-310) (enzyme)
